From publication PMC8461913
These are yes or no findings as the source states them, for the method shown. In cells and extracts the contact can be indirect. Tags and fused reporters may be left off the sequences shown.

Amino acid sequences for entries named in this document (tags omitted).
UniProt P08047: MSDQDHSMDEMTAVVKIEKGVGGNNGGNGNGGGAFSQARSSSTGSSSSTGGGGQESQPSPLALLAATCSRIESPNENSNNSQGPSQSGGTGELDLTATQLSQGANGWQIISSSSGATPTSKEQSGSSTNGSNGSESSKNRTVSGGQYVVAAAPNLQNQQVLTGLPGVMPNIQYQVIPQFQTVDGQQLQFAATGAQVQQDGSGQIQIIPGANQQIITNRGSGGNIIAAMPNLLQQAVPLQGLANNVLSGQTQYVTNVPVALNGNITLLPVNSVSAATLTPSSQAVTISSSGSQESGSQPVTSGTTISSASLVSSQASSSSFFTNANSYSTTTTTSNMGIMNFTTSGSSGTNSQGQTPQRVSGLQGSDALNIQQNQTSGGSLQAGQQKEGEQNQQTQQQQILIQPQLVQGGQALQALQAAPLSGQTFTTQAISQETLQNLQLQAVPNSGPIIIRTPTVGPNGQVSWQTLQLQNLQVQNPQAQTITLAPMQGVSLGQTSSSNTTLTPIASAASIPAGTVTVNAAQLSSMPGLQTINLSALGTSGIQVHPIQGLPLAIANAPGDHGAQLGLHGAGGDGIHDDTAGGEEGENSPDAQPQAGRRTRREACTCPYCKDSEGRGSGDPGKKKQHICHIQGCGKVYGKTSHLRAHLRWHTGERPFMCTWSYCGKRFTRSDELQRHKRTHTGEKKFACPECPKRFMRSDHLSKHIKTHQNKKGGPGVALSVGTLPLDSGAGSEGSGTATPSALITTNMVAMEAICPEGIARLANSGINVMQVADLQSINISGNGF
UniProt Q99081: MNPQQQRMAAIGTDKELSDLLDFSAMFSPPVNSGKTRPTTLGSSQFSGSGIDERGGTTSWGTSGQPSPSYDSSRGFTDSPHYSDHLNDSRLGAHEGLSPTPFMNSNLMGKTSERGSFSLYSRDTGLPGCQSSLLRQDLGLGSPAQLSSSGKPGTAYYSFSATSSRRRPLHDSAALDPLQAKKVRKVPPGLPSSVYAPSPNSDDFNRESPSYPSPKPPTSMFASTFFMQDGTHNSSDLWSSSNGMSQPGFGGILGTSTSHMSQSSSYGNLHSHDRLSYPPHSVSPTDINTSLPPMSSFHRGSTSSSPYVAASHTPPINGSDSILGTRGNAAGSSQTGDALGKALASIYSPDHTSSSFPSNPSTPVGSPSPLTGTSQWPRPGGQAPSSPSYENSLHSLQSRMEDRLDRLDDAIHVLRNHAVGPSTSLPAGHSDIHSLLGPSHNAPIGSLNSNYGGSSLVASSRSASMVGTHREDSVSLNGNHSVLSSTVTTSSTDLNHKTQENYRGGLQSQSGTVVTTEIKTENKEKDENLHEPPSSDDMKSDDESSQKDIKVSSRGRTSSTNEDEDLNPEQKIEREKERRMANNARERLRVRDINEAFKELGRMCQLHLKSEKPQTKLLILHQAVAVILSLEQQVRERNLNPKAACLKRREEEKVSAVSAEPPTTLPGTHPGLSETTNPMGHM

T1: Flag-tagged midkine (MDK) (human) (UniProt P21741)
T1 sequence: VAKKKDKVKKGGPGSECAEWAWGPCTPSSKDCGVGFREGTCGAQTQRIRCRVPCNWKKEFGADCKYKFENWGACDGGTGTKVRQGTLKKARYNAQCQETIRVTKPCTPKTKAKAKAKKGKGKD

B1: 5'-3' exoribonuclease 2 (XRN2) (protein, UniProt Q9H0D6 1-950)
chain: MGVPAFFRWLSRKYPSIIVNCVEEKPKECNGVKIPVDASKPNPNDVEFDNLYLDMNGIIHPCTHPEDKPAPKNEDEMMVAIFEYIDRLFSIVRPRRLLYMAIDGVAPRAKMNQQRSRRFRASKEGMEAAVEKQRVREEILAKGGFLPPEEIKERFDSNCITPGTEFMDNLAKCLRYYIADRLNNDPGWKNLTVILSDASAPGEGEHKIMDYIRRQRAQPNHDPNTHHCLCGADADLIMLGLATHEPNFTIIREEFKPNKPKPCGLCNQFGHEVKDCEGLPREKKGKHDELADSLPCAEGEFIFLRLNVLREYLERELTMASLPFTFDVERSIDDWVFMCFFVGNDFLPHLPSLEIRENAIDRLVNIYKNVVHKTGGYLTESGYVNLQRVQMIMLAVGEVEDSIFKKRKDDEDSFRRRQKEKRKRMKRDQPAFTPSGILTPHALGSRNSPGSQVASNPRQAAYEMRMQNNSSPSISPNTSFTSDGSPSPLGGIKRKAEDSDSEPEPEDNVRLWEAGWKQRYYKNKFDVDAADEKFRRKVVQSYVEGLCWVLRYYYQGCASWKWYYPFHYAPFASDFEGIADMPSDFEKGTKPFKPLEQLMGVFPAASGNFLPPSWRKLMSDPDSSIIDFYPEDFAIDLNGKKYAWQGVALLPFVDERRLRAALEEVYPDLTPEETRRNSLGGDVLFVGKHHPLHDFILELYQTGSTEPVEVPPELCHGIQGKFSLDEEAILPDQIVCSPVPMLRDLTQNTVVSINFKDPQFAEDYIFKAVMLPGARKPAAVLKPSDWEKSSNGRQWKPQLGFNRDRRPVHLDQAAFRTLGHVMPRGSGTGIYSNAAPPPVTYQGNLYRPLLRGQAQIPKLMSNMRPQDSWRGPPPLFQQQRFDRGVGAEPLLPWNRMLQTQNAAFQPNQYQMLAGPGGYPPRRDDRGGRQGYPREGRKYPLPPPSGRYNWN

Each molecule was assayed against T1, Flag-tagged midkine (MDK) (human) (assay: co-IP; lysate of MDK-overexpressing A172 cells; antibody or control IgG on Protein-G Sepharose beads, 2 h at 4 °C; three washes with extraction buffer; SDS-PAGE and immunoblotting).

binding, no binding:
Sp1 transcription factor (SP1) (from UniProt P08047 1-785)
transcription factor 12 (TCF12) (from UniProt Q99081 1-682)
B1
